The list shows a part of the results. Rule as the data show it: active = 2 or more and inactive = the rest. Single values are uncertain here, since repeats match poorly.
Test system: Lgr5 (MarsCy1-Lgr5-EGFP, U2OS)
Experiment: cell-surface Lgr5 expression (SCi1 fluorescence, background-subtracted) relative to WT DMSO (fold of DMSO control); higher = more Lgr5 at the plasma membrane
Details: U2OS MarsCy1-Lgr5-EGFP stable; treatment time: overnight; library: ActiProbe-5K (TimTec); 25 µM

Row | Structure (SMILES) | cell-surface Lgr5 expression
1 | CCN(CC)c1nc(OC)nc(C(N)=O)n1 | inactive: 1.02
2 | CC12CC3CC(C)(C1)CC(N)(C3)C2 | inactive: 1.3
3 | Nc1[nH]c(=S)sc1C(=O)Nc1nccs1 | inactive: 0.982
4 | Cn1c(=O)n(C)c2cc(Br)c(Br)cc21 | inactive: 0.902
5 | O=[N+]([O-])c1cc(Oc2ccc(F)c(Cl)c2)cc(-n2cnnn2)c1 | inactive: 1.46
6 | c1ccc2c(c1)nnn2CN1CCN(c2ccc3c(c2)OCO3)CC1 | inactive: 0.921
7 | CCc1sc(C(C2C(=O)CC(C)(C)CC2=O)C2C(=O)CC(C)(C)CC2=O)cc1Br | inactive: 1.09
8 | Cc1cc2nc(O)c(CCO)c(C)n2n1 | inactive: 1.09
9 | CCCCCC1CCC(/C(C)=N/NC(N)=O)CC1 (centres undefined) | inactive: 1.36
10 | Nc1ccc(N2CCOCC2)c(S(=O)(=O)N2CCOCC2)c1 | inactive: 1.16
11 | Oc1nc2cc(Br)cnc2nc1O | inactive: 1.43
12 | CCn1cc(Br)c(C(=O)N2CCN3CCCC3C2)n1 (centres undefined) | inactive: 1.11
13 | CCOC(=O)c1c(N)sc(C(C)=O)c1C | inactive: 1.41
14 | O=C(NC1CCCCCC1)c1ccco1 | inactive: 0.985
15 | O=[N+]([O-])c1ccc(Nc2ccc(Br)c(Cl)c2)c([N+](=O)[O-])c1 | active: 2.49
16 | Nc1cc(=O)[nH]c(=S)n1C1CC1 | inactive: 1.26
17 | Cn1nc(C(=O)NN)c(Br)c1C(F)(F)F | inactive: 1.13
18 | O=C(CC1(C(F)(F)C(F)F)NCCN1)c1cccs1 | inactive: 1.13
19 | c1ccc(-n2nnnc2SC2c3ccccc3-c3ccccc32)cc1 | inactive: 0.985
20 | Cn1cnc([N+](=O)[O-])c1C(=O)O | inactive: 0.911
21 | OCCCNc1nn2c(C(F)(F)C(F)(F)F)nnc2c2ccccc12 | inactive: 1.37
22 | O=c1oc(-c2cccs2)nc2sc3c(c12)CCCC3 | inactive: 1.24
23 | c1(c(c2CCCc2s1)C#N)NC(C1C(C)(C)C1\C=C(/Cl)Cl)=O (centres undefined) | inactive: 1.11

Look-ups from the list.
CC12CC3CC(C)(C1)CC(N)(C3)C2 – cell-surface Lgr5 expression: inactive: 1.3
Cc1cc2nc(O)c(CCO)c(C)n2n1 – cell-surface Lgr5 expression: inactive: 1.09
CCCCCC1CCC(/C(C)=N/NC(N)=O)CC1 (centres undefined) – cell-surface Lgr5 expression: inactive: 1.36
O=[N+]([O-])c1ccc(Nc2ccc(Br)c(Cl)c2)c([N+](=O)[O-])c1 – cell-surface Lgr5 expression: active: 2.49
CCOC(=O)c1c(N)sc(C(C)=O)c1C – cell-surface Lgr5 expression: inactive: 1.41

The listing continues.

Row | Structure (SMILES) | cell-surface Lgr5 expression
24 | O=C1Nc2ccc(Br)cc2/C1=N/Nc1nnn[nH]1 | inactive: 1.01
25 | N#Cc1cnc(N2CCCCC2)nc1N | inactive: 0.972
26 | Cc1ccc2c(c1)/C(=C/c1ccc3c(c1)OCO3)c1cccnc1-2 | inactive: 1.01
27 | COc1c(C=O)c(C)nn1C | inactive: 1.26
28 | Cc1cc2c(c(=O)[nH]1)C(=O)OC2 | inactive: 1.45
29 | COC(=O)c1cccoc1=O | inactive: 1.04
30 | CCCc1[nH]nc2c1C1(CC[C@H]3CO[C@@H]1O3)C(C#N)=C(N)O2 (some centres undefined) | inactive: 1.12
31 | O=Cc1ccc(Br)s1 | inactive: 0.992
32 | Cc1cnn(C(C)c2nnc(NC3CC3)s2)c1 (centres undefined) | inactive: 1.12
33 | CC1(C)NC(=O)N(CC(O)CN2C(=O)NC(C)(C)C2=O)C1=O | inactive: 1.63
34 | OC1CC(C(F)(F)F)Oc2ccccc21 (centres undefined) | inactive: 1.12
35 | Fc1ccc(Nc2ncc(F)c(Nc3ccc(F)c(Cl)c3)n2)cc1Cl | inactive: 1.37
36 | Fc1ccc(NC(=S)N2CCCC2)cc1 | inactive: 1.18
37 | FC(F)(F)c1ccc(/C=N/N2CCN(C3c4ccccc4-c4ccccc43)CC2)cc1 | inactive: 1.31
38 | O=S(=O)(c1ccc(F)cc1)N1CCCCC1 | inactive: 1.29
39 | O=C(Cc1cccs1)N/N=C\c1cccs1 | inactive: 1.08
40 | CCOC(=O)CSC1=C(C#N)[C@H](c2ccccc2[N+](=O)[O-])C(C(C)=O)=C(C)N1 | inactive: 0.948
41 | C=CCn1c(SCc2ccc3nonc3c2)nnc1-c1cccnc1 | inactive: 1.31
42 | CC(CCO)c1cc(C(C)(C)C)c(O)c(C(C)(C)C)c1 (centres undefined) | inactive: 1.03
43 | CN(C)c1nc(/C(N)=N/O)nc(N(C)C)n1 | inactive: 0.975
44 | Cn1c(COc2ccccc2)nn(C2c3ccccc3Oc3ccccc32)c1=S | inactive: 0.971
45 | CCC(C)NS(=O)(=O)c1cc(Cl)ccc1Cl (centres undefined) | inactive: 1.08
46 | CCCCCc1c2c(C)c(C(=O)OCC)nc-2cc2n1C(C)C(C)=C2C.Cl (centres undefined) | inactive: 1.18

Row | Structure (SMILES) | cell-surface Lgr5 expression
47 | Cc1ccc(C)c(N=C=S)c1 | inactive: 1.4
48 | CSc1nc2c(cc1C#N)CCCC2 | inactive: 1.02
49 | Cn1cc(Cl)c(C(=O)N/N=C/C2CC=CCC2)n1 (centres undefined) | inactive: 1.15
50 | CC1=NN(S(=O)(=O)c2cnn(C)c2)C(O)(C(F)(F)F)C1 (centres undefined) | inactive: 1.13
51 | NNc1ccc(Oc2ccccc2)c(S(=O)(=O)O)c1 | inactive: 1.22
52 | COC(=O)c1nonc1N | inactive: 0.942
53 | CCN1C(=O)N(CC)C2OCOC21 (centres undefined) | inactive: 1.07
54 | Cn1cc(C(C2=C(O)CC(C)(C)CC2=O)C2=C(O)CC(C)(C)CC2=O)cn1 | inactive: 1.27
55 | O=C(COC(=O)c1cc2ccccc2o1)C1=CC2C=CC=CC2O1 (centres undefined) | inactive: 1.21
56 | CSc1ccc(C2C(C#N)=C(N)N3C(=C2C#N)Sc2ccccc23)cc1 (centres undefined) | inactive: 1.11
57 | COc1ccc2c(ccc[n+]2[O-])c1 | inactive: 1.54
58 | CS(=O)(=O)Oc1cc2c(cc1[N+](=O)[O-])OCO2 | inactive: 1.02
59 | Cc1cc(C(C)c2cc(C)cc(C(C)(C)C)c2O)c(O)c(C(C)(C)C)c1 | inactive: 1.53
60 | Cc1sc2ccc3sccc3c2[n+]1CCCS(=O)(=O)[O-] | inactive: 1.22
61 | CC1CCc2c(sc3nc(-c4ccco4)oc(=O)c23)C1 (centres undefined) | inactive: 1.15
62 | O=S(=O)(Cc1ccc(Cl)cc1Cl)c1nc2cccnc2[nH]1 | inactive: 1.05
63 | Oc1cc(O)c2sc3nc4c(cc3c2n1)CCCCC4 | inactive: 1.1
64 | N/C(=N\OCC(=O)N1CCCCC1)c1nonc1N | inactive: 1.1
65 | O/N=C\c1ccc2ccccc2c1 | inactive: 0.87
66 | CCc1nccn1S(=O)(=O)c1nc(C)c(Cl)c(C)c1C#N | inactive: 1.31
67 | O=C1NCCN1C(=O)N(c1ccccc1)c1ccccc1 | inactive: 0.949
68 | CC1(C)Cc2noc(N)c2C(C)(C)N1O | inactive: 1.09
69 | S=c1n(CN2CCOCC2)nnn1-c1ccccc1 | inactive: 1.16

— the supplement of paper PMC4683952
